According to publication PMC8384837:
Positions count from the first letter of the chain named. This is one part of the list. For some of these results: At the low end of the ranking the order means little. For some of these results: The source does not settle which construct or isoform was used.

Key:
Conditions in all cases: yeast three-hybrid, YBZ-1, SC-Leu-His + 0.5 mM 3-AT, 4 days
[1] = target: T1, PUM1 PUF domain R2-VFQ R3-THE R4-TFR N899V + Y900F + C935T + R936H + Q939E + N971T + H972F + Q975R (UniProt Q14671)
T1 sequence: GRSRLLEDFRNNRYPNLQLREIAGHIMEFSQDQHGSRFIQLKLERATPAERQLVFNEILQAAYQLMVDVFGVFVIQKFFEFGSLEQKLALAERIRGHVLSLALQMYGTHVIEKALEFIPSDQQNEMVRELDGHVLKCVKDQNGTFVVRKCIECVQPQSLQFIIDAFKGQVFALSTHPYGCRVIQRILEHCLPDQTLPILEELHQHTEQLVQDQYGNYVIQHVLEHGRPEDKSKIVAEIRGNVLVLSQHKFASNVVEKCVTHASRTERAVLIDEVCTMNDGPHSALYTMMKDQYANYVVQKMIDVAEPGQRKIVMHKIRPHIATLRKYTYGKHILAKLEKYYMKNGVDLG

[2] = target: T2, PUM1 PUF domain R1-QFR R2-VFQ R7-NPG S863Q + R864F + Q867R + N899V + Y900F + S1079N + N1080P + E1083G (UniProt Q14671)
T2 sequence: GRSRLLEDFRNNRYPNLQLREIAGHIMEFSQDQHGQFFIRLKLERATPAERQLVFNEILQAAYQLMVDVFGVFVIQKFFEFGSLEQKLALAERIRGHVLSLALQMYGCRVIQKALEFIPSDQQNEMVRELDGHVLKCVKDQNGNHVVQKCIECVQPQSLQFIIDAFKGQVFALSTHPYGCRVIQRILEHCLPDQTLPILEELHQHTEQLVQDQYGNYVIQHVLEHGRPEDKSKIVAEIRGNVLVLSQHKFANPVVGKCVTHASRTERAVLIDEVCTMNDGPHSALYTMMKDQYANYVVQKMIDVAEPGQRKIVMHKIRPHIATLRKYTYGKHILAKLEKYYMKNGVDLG

[3] = target: T3, PUM1 PUF domain R5-PHQ R6-SWD C1007P + R1008H + N1043S + Y1044W + Q1047D (UniProt Q14671)
T3 sequence: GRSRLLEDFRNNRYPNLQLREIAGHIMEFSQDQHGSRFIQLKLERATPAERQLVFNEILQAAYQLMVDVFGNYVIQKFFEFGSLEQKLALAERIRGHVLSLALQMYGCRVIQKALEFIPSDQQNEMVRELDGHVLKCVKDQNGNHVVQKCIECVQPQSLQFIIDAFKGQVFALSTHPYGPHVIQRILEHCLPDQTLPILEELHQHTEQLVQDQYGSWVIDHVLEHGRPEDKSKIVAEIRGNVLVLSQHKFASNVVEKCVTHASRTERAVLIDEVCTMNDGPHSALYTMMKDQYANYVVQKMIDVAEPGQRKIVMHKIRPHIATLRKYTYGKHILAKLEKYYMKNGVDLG

[4] = target: T4, PUM1 PUF domain R6-SWD R7-NPG N1043S + Y1044W + Q1047D + S1079N + N1080P + E1083G (UniProt Q14671)
T4 sequence: T3 sequence with P180C, H181R, S252N, N253P, E256G

GGCUAGAACUAGUGGAUCCCCCGGCGCCCGGCGGCUCGAGCCCGGGUAAGUCUGAACGGUCUGCAUGCCGCCGGGCGCCAUGCCUGCAGGUCGACUCUAGAAAACAUG
binding signal (log2 enrichment (interaction score)) [1]: -5.96

GGCUAGAACUAGUGGAUCCCCCGGCGCCCGGCGGCUCGAGCCCGGGUAAGGUUGCGAAGUCUGCAUGCCGCCGGGCGCCAUGCCUGCAGGUCGACUCUAGAAAACAUG
binding signal (log2 enrichment (interaction score)) [1]: -6.1

GGCUAGAACUAGUGGAUCCCCCGGCGCCCGGCGGCUCGAGCCCGGGUAAGUUGAACUGGUCUGCAUGCCGCCGGGCGCCAUGCCUGCAGGUCGACUCUAGAAAACAUG
binding signal (log2 enrichment (interaction score)) [2]: -3.93
binding signal (log2 enrichment (interaction score)) [3]: < -7.63
binding signal (log2 enrichment (interaction score)) [4]: -2.01

GGCUAGAACUAGUGGAUCCCCCGGCGCCCGGCGGCUCGAGCCCGGGUAAGUGCACAUAGUCUGCAUGCCGCCGGGCGCCAUGCCUGCAGGUCGACUCUAGAAAACAUG
binding signal (log2 enrichment (interaction score)) [1]: -5.96

GGCUAGAACUAGUGGAUCCCCCGGCGCCCGGCGGCUCGAGCCCGGGUAAGUUCAGUUAGUCUGCAUGCCGCCGGGCGCCAUGCCUGCAGGUCGACUCUAGAAAACAUG
binding signal (log2 enrichment (interaction score)) [1]: -4.79
